Test results taken from PubChem BioAssay AID1347423 (Functional Genomics Laboratory (NCATS/FGL), 2020).
The campaign covered roughly 52,000 sequences. About 210 (0.4%) were called active.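 Rule for the calls: active = gene whose silencing raises cell survival under the drug, median off-target-corrected z-score across its silencing RNAs 2 or more; inactive = the rest.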 The list shows a part of the results.

assay: Resistance to Poly (ADP-Ribose) Polymerase inhibitor: Gene Identification via Genome-wide siRNA Screen; conditions: mouse BRCA2 R2336H ES cells, olaparib, CellTiter-Glo viability; hits give high values
Outline: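 Genome-wide siRNA screen (3 siRNAs/gene, 20 nM) in mouse ES cells carrying hypomorphic BRCA2 R2336H; olaparib 500 nM added 48 h post-transfection, CellTiter-Glo viability 72 h later. Normalized to plate-median negative control; MAD z-scores, gene median, seed-adjusted.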

| Sequence | z-score |
| --- | --- |
| GGGCCACAAAGAAAUCAUATT against AI553587 | inactive: -0.124 |
| GGACCACAUAGCUUUUGAGTT against 2900036G02Rik | inactive: 0.884 |
| GGAAGCAGCAAAGAAGUUGTT against Olfr1109 | inactive: -0.77 |
| GGAAUCUCCACCAUACAGGTT against V1rc17 | inactive: 0.0391 |
| GGGUCCUUUGUCACAUUCATT against Psmd7 | inactive: -1.7 |
| CCCAGGUGUAUUUUACAUATT against D10Wsu102e | inactive: -0.395 |
| GGAGAAACUCUAGAAUUGATT against Mamdc1 | inactive: 1.13 |
| CCAAAAUGAGGGCAUCUAUTT against Mvp | inactive: -0.733 |
| CCACUAUGAAUCGUGGUUCTT against Sp6 | inactive: 0.658 |
| GGAGAGAUUUCUUGGUAAATT against Tex261 | inactive: -0.632 |
| GGCAUGACUAUAACCAUUUTT against 1110004F10Rik | inactive: 1.27 |
| GCAAGUGGUGUCGCUGUCATT against Olfr1349 | inactive: -0.661 |
| GUCUUCAGCAGUCUUCAGGTT against Sprr2f | inactive: -0.896 |
| GGUCCAAUUAACUUCACCGTT against Myl2 | inactive: -0.915 |
| GCGUAUAAGCUCAGUAGACTT against Plekhe1 | inactive: 0.576 |
| GGCCAACUCUACCUGAACATT against 9230002F21Rik | inactive: 0.64 |
| GGACAAAAUUAGACCUUUGTT against Arf2 | inactive: -2.26 |
| GCUUGAGUAGUGCAGAAACTT against 5430433L24Rik | inactive: -1.47 |
| GGGUCCCGGUUUAAAGCUUTT against 1110001J12Rik | inactive: 1.13 |
| GGCCAUGGUUGAGUUUGCUTT against 1110014D18Rik | inactive: 0.805 |
| GCCAAGAAACAAUACUCAUTT against Olfr1352 | inactive: 0.625 |
| CGAGAGCUAAAAAGAGUAATT against Chd1 | inactive: -0.923 |
| CCUGGACCCAUGAAGUCUUTT against 2310047C17Rik | inactive: -1.05 |
| GGGAAAAUCUGAAGUGUAATT against Galnt13 | inactive: 0.791 |
| GGCUCAUUUGAUGGAUUUCTT against Elf5 | inactive: -1.03 |
| GGCUCUGUUGAAUGCAACGTT against Slc39a6 | inactive: -0.317 |

| Sequence | z-score |
| --- | --- |
| GGGUUCUGGGAACUUUAUATT against Bdkrb1 | inactive: 0.0368 |
| GGGAUUAAAAGAUGACAUUTT against Dusp12 | inactive: 0.046 |
| GGGUUGCUGACUUUAGGAUTT against Lmx1a | inactive: 0.558 |
| GGAAGUUGAAAUGCUGUCGTT against Clcnka | inactive: -1.35 |
| CGCACUUGACCUAGCAAGUTT against A230083G16Rik | inactive: -0.472 |
| GGCCGGUUAGCUAAUCAGATT against 2810037C14Rik | inactive: 0.0231 |
| GGUGUUCCUGGUGAAGCAATT against Camk1g | inactive: -1.58 |
| GCACUGAAAGUCUACGUCCTT against Rara | inactive: 0.654 |
| GGCACUUUUAUUCUUCUCUTT against Zmpste24 | inactive: -0.0471 |
| GGCGGAUAUCUUGAAAAACTT against Ntf3 | inactive: -0.416 |
| CCAAGAGCUGAAACAAGAATT against Ankrd12 | inactive: -0.125 |
| GGUGAUGUUUCUCACUGUCTT against A2m | inactive: 1.21 |
| GCGGCUUAGUCCAUCAGGATT against 2010301N04Rik | inactive: 0.986 |
| GCCAGUUGACCACUAUUGATT against 5730589K01Rik | inactive: -1.49 |
| GGCUAUGGACCGAAAGAUUTT against Dgcr6 | inactive: -1.71 |
| CCUGACAGGUUUAUGUGAATT against Cbl | inactive: 0.564 |
| CCCUUGAACAUUCUACUCUTT against 1700012A03Rik | inactive: 0.549 |
| GCUGUGUAGCAUUUUAACATT against Ank2 | inactive: 0.0136 |
| GCAAAAAUCGACUAAAGAGTT against B230217C06Rik | inactive: 0.115 |
| GGGAUUCGAAGGACAAUAGTT against V1rh20 | inactive: -0.932 |
| GGCUUUCAUAAUAUAAGACTT against Kera | inactive: 0.221 |
| GGUUAAUUUUCAGAAUGGATT against Canx | inactive: -0.168 |
| CCGUCAAAAGGGAAUUUCATT against Abca17 | inactive: -2.1 |
| GGCCAGGCUUUUGACUUUATT against Acy3 | inactive: -0.837 |
| GGUGUAACAUCAAAGCAGATT against BC021917 | inactive: 0.315 |
| CGUGCCUGCUCAAUUAAUUTT against 1700067P10Rik | inactive: 2.13 |

| Sequence | z-score |
| --- | --- |
| GGUCUACGCUAUCCUAGUUTT against Grin1 | inactive: 0.261 |
| CGCAGUCCUUGACAUUAAATT against Rab3a | inactive: -1.43 |
| GGUGUUGAGAAGAAAAAUATT against Spz1 | inactive: 0.167 |
| GGCUACGCCCACAAAAGCUTT against Hist1h1t | inactive: -0.11 |
| CCUGCAUGAUUCUUACAUGTT against Mrgprd | inactive: 0.129 |
| CCCAAAAAUUGACAAGUCATT against Batf | inactive: -0.197 |
| CGGCUUGGACAGAUUUAUCTT against 1110060F11Rik | inactive: 0.622 |
| CCAUAUCAGGCAUAGCAGUTT against Nthl1 | inactive: 0.834 |
| GGCAAGUUUGCUAUAACCUTT against Jmy | inactive: -0.0457 |
| CCAUAACCACCUGUCAUUGTT against Mrpl55 | inactive: 2.14 |
| GCCUCCUUUGCUUCAUUUCTT against Fcer1g | inactive: -0.0573 |
| UUGAACAGUGGAACAAUGATT against Fbxo27 | inactive: -1.71 |
| GGAGUUGAAGUUUGUGACATT against Acpp | active: 2.3 |
| GGAGCUCUUCCAGUUGUUUTT against Khk | inactive: -0.684 |
| CGCCAGCAGAACUCAAAUATT against RP23-219P13.3 | inactive: 0.432 |
| GCCUACAAUCGAGACAGUUTT against Sgca | inactive: -1.75 |
| CGACCUGUUUGAAAACACCTT against Cnn1 | inactive: -0.00306 |
| GCAGUUAUUACCAAUAAUGTT against Plcd | inactive: -0.231 |
| GGGAGAGAAGCCAUAUAAATT against Zfp7 | inactive: 1.14 |
| GGACUUCACCAUCUAUAACTT against Vangl1 | inactive: -0.147 |
| GGAAGUUGUAGAAGAAACUTT against E430026E19Rik | inactive: -2.86 |
| GAAACUGUAACAGUCUAUATT against Spp1 | inactive: -0.555 |
| GGAGUAAUCAUGCUGGAGCTT against 9930104L06Rik | inactive: 0.406 |
| GGAAGGCUUUCAAGAUUCATT against Gsta1 | inactive: 0.629 |
| GGGUGGAGAACCAAGUUUUTT against 1810015P03Rik | inactive: -0.913 |
| GGAAGAGGUGAAUGAUAAATT against Bmi1 | inactive: 0.872 |

| Sequence | z-score |
| --- | --- |
| AACCUGGCUCAUAUCCCAUTT against Retnlg | inactive: -0.465 |
| GGAAGAAGAAGGUGUAACCTT against Defb39 | inactive: 0.889 |
| GGACCAUCUCUGAUGAACCTT against 6330505N24Rik | inactive: 0.416 |
| GGUUGUUUAUGCUUUCUCUTT against Grit | inactive: 1.02 |
| GGUCUCUUUAGUUAAGAUGTT against Wrn | inactive: 0.208 |
| GGUUACUGGUAAAUGGCAGTT against Olfr1505 | inactive: 0.313 |
| GCUAAUGCUGCGUAUUUGCTT against Cops7b | inactive: 0.365 |
| GCUUUAGCUUUCCCUCGUUTT against Rsl1 | inactive: -0.606 |
| GCCUUUCUUCAGUGUUCACTT against Gm128 | inactive: -0.428 |
| GGAAUCAAAACAAUCGAAUTT against Nfia | inactive: 0.811 |
| CGGACUAUUGUGUUGUUAATT against Atoh1 | inactive: 1.65 |
| GCUUGAAGCGAUUAUUUGUTT against Slc25a14 | inactive: -0.329 |
| GUUCCAGUUUAUCCCUUCUTT against Klra1 | inactive: -0.86 |
| GGAGCUAAGGGAACAAUUATT against Psmc6 | inactive: -2.12 |
| GGAGGUUGUAAUAGCCUUATT against 5133400D11Rik | inactive: -1.25 |
| GGUGGAUCGCUUUAACCUGTT against Acd | inactive: -0.682 |
| CCUUCGUCUGGAUUCUUAATT against Stard3 | inactive: -1.53 |
| CGUGUUCAAAAGAGUUUUCTT against Sos1 | inactive: 0.407 |
| GCCUCAGUUUGAAAUUGUUTT against Tbrg1 | inactive: -0.422 |
| GCACUACCGUGAUGAGAUGTT against Dnaic1 | inactive: -0.692 |
| GCCAAAAAAGCUGUCAGUUTT against Nkx2-3 | inactive: 1.04 |
| GUCUCUUGGUAAAUGGCAATT against Hcrt | inactive: 1.84 |
| GCAAAAAGCAGACUAUGAATT against Vezf1 | inactive: 0.326 |
| GGUCACUGUUAGUUAUUAATT against Tcerg1l | inactive: 0.00562 |
| GCUGAUGGACUCAAGAAAGTT against 2410018M08Rik | inactive: 0.348 |
| GGAAGAGCUUUCUGGAAAUTT against Ndrg2 | inactive: -2.27 |

Six entries from above, as tab-separated lines:
Sequence	z-score
CGUGUUCAAAAGAGUUUUCTT against Sos1	inactive: 0.407
GCCUCAGUUUGAAAUUGUUTT against Tbrg1	inactive: -0.422
GCACUACCGUGAUGAGAUGTT against Dnaic1	inactive: -0.692
GCCAAAAAAGCUGUCAGUUTT against Nkx2-3	inactive: 1.04
GUCUCUUGGUAAAUGGCAATT against Hcrt	inactive: 1.84
GCAAAAAGCAGACUAUGAATT against Vezf1	inactive: 0.326
